Measured values published in patent US9375424B2, “Compounds that treat malaria and prevent malaria transmission” (The United States of America, as represented by the …, priority 2009, dated 2016).
Structures can show the parent of a compound that is named as a salt. Some results were stated once for a whole list of compounds, not compound by compound. At least one compound was matched to its structure with a doubt left.

Test system: P. falciparum lines
Experiment: qHTS SYBR Green Plasmodium proliferation assay in infected erythrocytes (seven parasite lines)
Assay type: cell-based, Plasmodium falciparum
Conditions: all seven parasite lines, 72 h incubation; read-out: IC50, inhibition of proliferation in all parasite lines
Experimental: The P. falciparum lines used in this study have been described previously (Mu J, et al. Multiple transporters associated with malaria parasite responses to chloroquine and quinine. Mol Microbiol 2003;49:977-989). […] Briefly, 3 μl culture medium was dispensed into 1536-well black clear-bottom plates (Aurora Biotechnologies) using a Multidrop Combi (Thermo Fisher Scientific Inc.); 23-nL compounds in DMSO were added by a pin tool (Kalypsys), and 5 μl of P. falciparum-infected RBCs (0.3% parasitemia, 2.5% hematocrit final concentration) were added. […] The following morning, fluorescence intensity at 485 (14) nm excitation and 535 (25) nm emission wavelengths was measured on an En Vision (Perkin Elmer) plate reader. […] The plates were incubated at 37° C. under 5% CO2, 5% 02, and 90% N2 for 72 h, incubated for another 30 min after addition of 50 μl lysis buffer, and read in a FLUOstar OPTIMA reader (BMG Labtech). Data were analyzed using software at the NIAID Bioinformatic Resources (niaid-biocluster.niaid.nih.gov/cgi-bin/bipod2/index.cgi). Parasite proliferation was measured after 72 hr of incubation (corresponding to 1.5 generations of intra-erythrocytic parasite growth), with each compound tested at seven or eight five-fold dilutions beginning at 29 μM. […] The potencies of known antimalarial agents had similar values determined by the assay in 96-well plate format. […]

| Structure (SMILES) | IC50 [nM] |
| --- | --- |
| C=CC[N+](C)(C)c1ccc(CCC(=O)CCc2ccc([N+](C)(C)CC=C)cc2)cc1 [BW 284c51, 1,5-bis(4-allyldimethylammoniumphenyl)pentan-3-one dibromide] | < 2000 |
| O[Si](CCCN1CCCCC1)(c1ccccc1)C1CCCCC1 (centres unmarked) [hexahydro-sila-difenidol hydrochloride] | < 2000 |
